Data reported in the supplement of paper PMC3334620.
Whole data set: some 33,000 sequences, median “E-score (-0.5 to 0.5)” near -0.015, cut for the highest 2% near 0.3. This is one part of the list.

Target: T1, Abf1 (UniProt P14164)
T1 sequence: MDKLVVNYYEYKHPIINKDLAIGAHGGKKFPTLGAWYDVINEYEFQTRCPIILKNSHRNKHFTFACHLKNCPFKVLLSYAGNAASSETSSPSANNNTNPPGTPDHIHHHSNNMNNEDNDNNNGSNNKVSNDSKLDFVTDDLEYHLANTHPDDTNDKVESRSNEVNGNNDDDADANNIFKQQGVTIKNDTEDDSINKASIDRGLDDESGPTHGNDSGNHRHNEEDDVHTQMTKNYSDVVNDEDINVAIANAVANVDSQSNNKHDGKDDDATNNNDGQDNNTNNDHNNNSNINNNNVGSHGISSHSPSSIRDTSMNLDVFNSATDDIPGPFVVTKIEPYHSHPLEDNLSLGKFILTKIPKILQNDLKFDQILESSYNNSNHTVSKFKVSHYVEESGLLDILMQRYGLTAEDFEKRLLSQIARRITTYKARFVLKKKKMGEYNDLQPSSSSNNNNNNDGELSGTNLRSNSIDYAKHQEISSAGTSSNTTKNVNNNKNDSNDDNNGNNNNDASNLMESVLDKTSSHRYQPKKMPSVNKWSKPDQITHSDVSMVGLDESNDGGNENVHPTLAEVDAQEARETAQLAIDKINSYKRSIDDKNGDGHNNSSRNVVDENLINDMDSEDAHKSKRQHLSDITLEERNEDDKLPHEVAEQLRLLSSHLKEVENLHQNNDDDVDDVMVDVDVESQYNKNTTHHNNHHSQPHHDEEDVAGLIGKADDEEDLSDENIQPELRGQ
Assay: PBM E-score (8-mer binding enrichment) (E-score (-0.5 to 0.5)); higher = stronger / more preferred TF binding
Details: protein concentration: 200 nM; construct: GST-full length
Description: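 Universal 'all 10-mer' protein binding microarrays (Agilent AMADID 015681) probed with GST-tagged S. cerevisiae TFs (full-length or DBD) made by in vitro transcription/translation (PURExpress), about 100-200 nM. Bound TF was detected with fluorescent anti-GST. Each ungapped 8-mer (which stands for itself and its reverse complement) is scored by the PBM enrichment score (E-score), a modified Wilcoxon-Mann-Whitney statistic from -0.5 to +0.5, computed with the Universal PBM Analysis Suite. Scale: above 0.35 generally sequence-specific binding.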

Sequence	PBM E-score
CGTTACAA	0.195
CACTTAGA	0.186
GGAACGCA	-0.0656
GGACTCAA	-0.158
ATAACGAG	0.24
ACGAAAGA	0.0978
ATTTATCA	0.314
AGGCCCGA	-0.383
CATGTTTC	0.0467
CTCGTAAA	0.226
TGATTGAA	0.2
CGCCCTAG	-0.0127
CACGTGGA	0.182
AACTGTCC	-0.0547
ATGACGCG	0.0972
CTCACTTA	0.14
AGACCGTA	0.0319
TCGCTTAA	0.135
TTGAACAA	0.0308
AAAGTGTA	0.0985
ACCTAACG	0.0885
ATCTAAGG	0.0522
ATCCGTGA	0.251
GACCTCGA	-0.00289
ACTAGATC	-0.0369

Sequence	PBM E-score
ATGCGTGG	-0.109
CCCGGCAG	-0.135
CAAGGATC	-0.0299
ATTACAGC	-0.0293
ACGCATTG	0.0256
AACGCGAT	0.0681
ATTAGAAT	0.0036
CGCCAGAG	-0.201
CTGCAAAA	0.0938
GATCGTAA	0.254
CAGAACCA	-0.174
CCGAGATC	0.0295
AAAAGATG	0.11
AAAACCTT	-0.204
GACAAGAA	0.0728
CCCAACTC	-0.19
CAAGGTTC	-0.0801
CATGGGCC	-0.102
GACGTCGC	0.122
GGAAGTAC	-0.0706
TACCAGTA	0.0685
CTATCCTC	-0.0153
ATATCGGC	0.149
ACCGACGA	0.104
GTCCCGAC	-0.155

Sequence	PBM E-score
GTGCTGAA	-0.0603
GAAGACTC	0.0777
TATTAAAA	0.225
GGGTGGAA	-0.194
GGTCGTAC	0.212
CATTAGGA	-0.0278
AGGTAGAT	-0.0286
CCCTTCCG	-0.286
ATATATCC	0.171
ACCGCGGT	0.0152
ACAGCTCT	-0.248
AAAAAGTA	0.242
CCCTTTAC	-0.191
ACTAGAGT	-0.116
AATCTGCG	0.0356
AACAGTAA	-0.0209
CTCTAGAG	-0.12
ACTGTTAA	0.0822
CATCGTCA	0.297
GTGGGCCA	0.0455
GTTCAGCA	0.114
GTCTGTCA	0.129
CCCTCTGA	-0.196
AGGAAAAG	-0.119
AATGGATA	0.0384

Sequence	PBM E-score
ACGCCCGC	-0.0428
AACTTTCG	-0.144
CAACGATG	0.014
GATGACAC	0.337
ATCGAGGC	-0.126
CGTCAGGA	0.184
GACTGAAC	-0.107
GATGTACA	0.0804
GGTCCAAC	-0.17
AATCGCGG	-0.0917
ACCTGGTG	-0.228
AAAGGAGT	-0.219
ACAGAATC	-0.0766
AGATGTAT	-0.00043
CACCTGCC	-0.0811
ACTGCGAC	-0.0346
TATATTAA	0.167
ACACGTGA	0.237
ACCGCTAG	-0.2
AAACGAGG	0.0788
TAACTCGA	0.143
CAGTAGCG	-0.07
AACTTGTC	0.0305
CTAGGTAA	-0.147
GTGGTCGA	0.0486

Sequence	PBM E-score
ACAAATCC	-0.0383
CCGTAAGC	0.0521
GGGTCATA	-0.0763
AACACGGG	0.0382
CCACGTGG	-0.143
CACCTTGA	-0.00716
ACCCACGC	-0.189
TTCGAGAA	0.059
CCTCGCCA	-0.305
GGCGGCTA	-0.0742
AGATCCTA	0.0773
AGACGCAC	-0.0441
GCATCAAA	0.0877
AAGACTAC	-0.0652
CCACGTGC	0.0459
GACTGGCC	-0.182
ATCCAAGC	-0.179
CATCTACA	0.0159
AAGCAAGT	-0.152
CCCACTAC	-0.109
ATAGACTA	0.0168
CCGAGTCG	-0.184
ACACTCAC	-0.0259
ACTCTTAA	-0.0406
ACTCATGC	-0.0313

Sequence	PBM E-score
TAACGGCA	0.17
AACCTGCG	-0.107
CAGCCAAA	-0.0235
CGCTTTCC	-0.0668
AAGTGGTG	-0.135
GAGTACAC	-0.0664
CTAGGTTA	0.163
GTGGAAAC	0.0949
CATAAACA	0.0594
ACAGGTCT	0.091
AAATTGAG	-0.124
ATTAGCGG	-0.0661
CGTTTAGC	-0.0044
ATAACCGC	-0.00286
AACCCTTG	-0.187
ATCAGGCG	0.0182
AGCTAATA	0.113
CATCGGAA	0.0244
AATGCACA	0.153
CCTCATCG	-0.0266
CGAATGCC	-0.18
GAGGTAGA	-0.12
CTTTAGTC	-0.0462
ATGCCGCG	0.0192
GACTGGAC	-0.111

Sequence	PBM E-score
CTAGACTA	-0.044
CTAGGGGC	-0.216
CTTAAACA	-0.00287
GCCAGTAC	-0.113
CGCAACCC	-0.103
CTGTCAGC	-0.139
ATCGAGGG	-0.137
ACTACTGG	-0.114
AAAAGCAT	0.0781
AATTCCGC	0.109
GGACCATA	-0.139
GATTCAAC	0.0326
GTGCGGAA	0.0933
ATGACCAC	0.0534
ACTTCACG	0.125
ACGATAGC	0.291
AAACACCG	-0.0545
AGCGACGC	0.122
ACTTTAGA	0.144
CAGTCTGC	-0.163
AGGGACAC	0.0733
GGGGCTTA	-0.303
CACAGATA	0.00079
ACGCATTC	-0.027
ACCTATTG	-0.0791

Sequence	PBM E-score
GGAATCCC	-0.151
GGTTATTA	0.126
ATCACCCA	0.246
GTACGACA	0.36
GGATCACC	0.247
CTTAATTC	0.128
GACAGCGA	-0.0707
ACGAATAT	0.209
CGCTTAGC	-0.221
CCGTGGCA	-0.0649
AGCACCCG	-0.0893
GCGGCTCC	-0.343
GAATCCAC	-0.00956
CATATCCG	0.0157
CGTGCAAG	0.169
AGCTCTAT	-0.0782
AGGTAAAC	-0.191
ATATAGCG	-0.0746
CTCCGTCC	-0.0828
AGCACCAT	-0.199
CAACGTGC	0.057
AACGGCTC	0.00606
AGCTGTCA	0.0996
AACGCCCA	-0.0727
CAGAAACC	-0.152

Sequence	PBM E-score
CGTTCGGA	0.11
CACAGGGA	-0.184
CTCCACTC	-0.357
CGCCTTAG	-0.0841
AACGTACA	0.0978
CGGCCGGC	-0.0699
GGTAACTA	0.104
CCTAAAAG	-0.262
CAGGAAAG	-0.146
CAAGGCTG	-0.0693
GGCAGTCA	0.0837
CGTGCGTC	0.258
CATTCACC	0.0324
ACGCGTGA	0.291
ACTGTGGC	-0.117
CACAGGCA	-0.117
CGTTGATC	0.247
AAAGATGT	0.07
CCTAGCCC	-0.278
GAGGAGCC	-0.0802
ATATCGCG	0.382
AACGGAGA	-0.0536
ACTCCAGG	-0.142
GCTAGTAA	-0.0435
CAATCTAA	-0.0367

Sequence	PBM E-score
AGTGTATA	-0.0847
GAGTTCGC	0.0063
GACCGGTA	-0.12
AAACTACT	0.118
CGCGTGAG	0.00035
AGCGAGCT	0.0323
AGGTTCAC	-0.0626
AGTGAATC	-0.156
AAGGACCT	-0.037
CGGTTAAG	0.0216
CCGATCTC	-0.187
CGGTACAG	-0.11
CGATGACG	0.136
GCCAGTCA	-0.00571
ACTCAGTC	-0.2
CACATCCG	-0.119
GAATCCCC	-0.185
GCAAGAGC	-0.0192
GCAGGGCA	-0.0532
ACGCTCAG	-0.151
AAAACATG	-0.0223
CAGTTACA	0.107
AGCATAAT	0.199
GCCCTCTA	-0.224
GCGATTCA	0.131

Sequence	PBM E-score
AGCTGATC	0.138
CTCTCGAC	-0.233
CACTGTGA	0.057
CTCTTGAA	-0.0403
AGATATCG	0.11
AGGGACCG	-0.0817
CGACGGGA	0.0357
AGTAGTAA	0.0953
AGGAGCGA	0.00316
ATTGGTCA	0.0586
ATCCGGCA	-0.192
ATGACTAG	0.054
AATTAGAC	0.0434
AGTCGAGA	0.167
ATCATCGA	0.175
TACGCAAA	-0.163
ATAGAACG	0.124
TCAACGGA	0.0616
CAACGATC	0.103
AAAGGCAG	0.17
TAGTGGCA	-0.0295
GATCGCGC	0.121
TCCCTAGA	0.146
AAGAGGCT	-0.148
ACATCTTC	-0.0131

Copied from the list:
ACATCTTC | PBM E-score: -0.0131
AGCTGATC | PBM E-score: 0.138
CACTGTGA | PBM E-score: 0.057
AGTAGTAA | PBM E-score: 0.0953
AGTCGAGA | PBM E-score: 0.167
TCAACGGA | PBM E-score: 0.0616

Next part.

Sequence	PBM E-score
GGTCGGCA	-0.183
CACGATAA	0.296
CATGCCGC	0.14
CAACCTGA	-0.0696
CGTTCATA	0.247
ACCTGGCC	-0.0752
CATATACG	0.217
ACGGAAAC	0.04
ACCGTTAA	0.235
GAGTTTGA	-0.128
AACAAGGA	0.0142
GGAGCTCC	-0.271
CCTGGGCG	-0.103
ATTTATCG	0.222
CGAGTGCC	-0.244
CCTAGCTA	-0.21
CCTACCAG	-0.297
GCATACTA	0.00916
TGAAATCA	0.226
CCGGGTCA	-0.186
CAGAAAGA	0.0742
CACATTTA	0.108
CGTTTGGC	0.0893
AGGTTGTG	-0.0254
ATGGCCGC	-0.281

Sequence	PBM E-score
CACGTAGA	0.0411
CCCATTCA	-0.164
ACTTGAAA	0.0258
ATACAACC	-0.264
ACCGATGA	0.0528
CGACTAAC	-0.0263
GAACCCCA	-0.281
ACTATGCG	0.00988
GCGTACAA	0.197
CACGGCTC	0.151
GGGCAAGA	0.0711
ACTCAGCG	0.0541
CTCGCATC	0.00256
AGCATGAA	-0.063
AATGGTCT	-0.0813
ATGACCTC	0.124
GATTAGAA	0.0552
CATGTACA	-0.0299
CCGTTTAC	-0.0155
CTTCAGAC	0.0482
CTATGTTA	0.00457
AATTGGCG	0.0955
CCGTGACG	0.198
AACTGCGC	-0.199
AGGGGAAA	-0.137

Sequence	PBM E-score
ATTACTCC	0.0358
AAGATTGT	0.0671
AAGATTTG	0.109
CAACGTCC	-0.147
GTAGCCAC	-0.0901
GATGATGA	0.223
CTATTTGC	-0.106
GAGTAGGA	-0.135
AAGATATC	0.201
CAACTAGA	-0.0511
CTTATATA	0.192
AAATTACA	0.106
CGCACTTC	-0.0888
GCGGCTTA	-0.276
GTCAAATA	0.169
CCTCGTTA	0.122
CTTTCAGC	-0.0533
GCCGAGAA	0.0108
AGTTTCTA	-0.0871

Fetched one by one from the list above:
Sequence	PBM E-score
AAATTACA	0.106
CTTTCAGC	-0.0533
GTCAAATA	0.169
ATTACTCC	0.0358

Taken from the listing for reference:
Sequence	PBM E-score
AAGATTGT	0.0671
AAGATTTG	0.109
CAACGTCC	-0.147
GTAGCCAC	-0.0901
